B1: NSF (protein, UniProt P46459 1-744, looked up)
Vesicle-fusing ATPase: MAGRSMQAARCPTDELSLTNCAVVNEKDFQSGQHVIVRTSPNHRYTFTLKTHPSVVPGSIAFSLPQRKWAGLSIGQEIEVSLYTFDKAKQCIGTMTIEIDFLQKKSIDSNPYDTDKMAAEFIQQFNNQAFSVGQQLVFSFNEKLFGLLVKDIEAMDPSILKGEPATGKRQKIEVGLVVGNSQVAFEKAENSSLNLIGKAKTKENRQSIINPDWNFEKMGIGGLDKEFSDIFRRAFASRVFPPEIVEQMGCKHVKGILLYGPPGCGKTLLARQIGKMLNAREPKVVNGPEILNKYVGESEANIRKLFADAEEEQRRLGANSGLHIIIFDEIDAICKQRGSMAGSTGVHDTVVNQLLSKIDGVEQLNNILVIGMTNRPDLIDEALLRPGRLEVKMEIGLPDEKGRLQILHIHTARMRGHQLLSADVDIKELAVETKNFSGAELEGLVRAAQSTAMNRHIKASTKVEVDMEKAESLQVTRGDFLASLENDIKPAFGTNQEDYASYIMNGIIKWGDPVTRVLDDGELLVQQTKNSDRTPLVSVLLEGPPHSGKTALAAKIAEESNFPFIKICSPDKMIGFSETAKCQAMKKIFDDAYKSQLSCVVVDDIERLLDYVPIGPRFSNLVLQALLVLLKKAPPQGRKLLIIGTTSRKDVLQEMEMLNAFSTTIHVPNIATGEQLLEALELLGNFKDKERTTIAQQVKGKKVWIGIKKLLMLIEMSLQMDPEYRVRKFLALLREEGASPLDFD
B2: KHSRP (protein, UniProt Q92945 2-711, looked up)
Far upstream element-binding …: SDYSTGGPPPGPPPPAGGGGGAGGAGGGPPPGPPGAGDRGGGGPGGGGPGGGSAGGPSQPPGGGGPGIRKDAFADAVQRARQIAAKIGGDAATTVNNSTPDFGFGGQKRQLEDGDQPESKKLASQGDSISSQLGPIHPPPRTSMTEEYRVPDGMVGLIIGRGGEQINKIQQDSGCKVQISPDSGGLPERSVSLTGAPESVQKAKMMLDDIVSRGRGGPPGQFHDNANGGQNGTVQEIMIPAGKAGLVIGKGGETIKQLQERAGVKMILIQDGSQNTNVDKPLRIIGDPYKVQQACEMVMDILRERDQGGFGDRNEYGSRIGGGIDVPVPRHSVGVVIGRSGEMIKKIQNDAGVRIQFKQDDGTGPEKIAHIMGPPDRCEHAARIINDLLQSLRSGPPGPPGGPGMPPGGRGRGRGQGNWGPPGGEMTFSIPTHKCGLVIGRGGENVKAINQQTGAFVEISRQLPPNGDPNFKLFIIRGSPQQIDHAKQLIEEKIEGPLCPVGPGPGGPGPAGPMGPFNPGPFNQGPPGAPPHAGGPPPHQYPPQGWGNTYPQWQPPAPHDPSKAAAAAADPNAAWAAYYSHYYQQPPGPVPGPAPAPAAPPAQGEPPQPPPTGQSDYTKAWEEYYKKIGQQPQQPGAPPQQDYTKAWEEYYKKQAQVATGGGPGAPPGSQPDYSAAWAEYYRQQAAYYGQTPGPGGPQPPPTQQGQQQAQ
B3: ABCB7 (protein, UniProt O75027 23-752, looked up)
Iron-sulfur clusters …: HSAILIRPLVSVSGSGPQWRPHQLGALGTARAYQIPESLKSITWQRLGKGNSGQFLDAAKALQVWPLIEKRTCWHGHAGGGLHTDPKEGLKDVDTRKIIKAMLSYVWPKDRPDLRARVAISLGFLGGAKAMNIVVPFMFKYAVDSLNQMSGNMLNLSDAPNTVATMATAVLIGYGVSRAGAAFFNEVRNAVFGKVAQNSIRRIAKNVFLHLHNLDLGFHLSRQTGALSKAIDRGTRGISFVLSALVFNLLPIMFEVMLVSGVLYYKCGAQFALVTLGTLGTYTAFTVAVTRWRTRFRIEMNKADNDAGNAAIDSLLNYETVKYFNNERYEAQRYDGFLKTYETASLKSTSTLAMLNFGQSAIFSVGLTAIMVLASQGIVAGTLTVGDLVMVNGLLFQLSLPLNFLGTVYRETRQALIDMNTLFTLLKVDTQIKDKVMASPLQITPQTATVAFDNVHFEYIEGQKVLSGISFEVPAGKKVAIVGGSGSGKSTIVRLLFRFYEPQKGSIYLAGQNIQDVSLESLRRAVGVVPQDAVLFHNTIYYNLLYGNISASPEEVYAVAKLAGLHDAILRMPHGYDTQVGERGLKLSGGEKQRVAIARAILKDPPVILYDEATSSLDSITEETILGAMKDVVKHRTSIFIAHRLSTVVDADEIIVLDQGKVAERGTHHGLLANPHSIYSEMWHTQSSRVQNHDNPKWEAKKENISKEEERKKLQEEIVNSVKGCGNCSC
B4: MYL12A (protein, UniProt P19105 1-171, looked up)
Myosin regulatory light chain …: MSSKRTKTKTKKRPQRATSNVFAMFDQSQIQEFKEAFNMIDQNRDGFIDKEDLHDMLASLGKNPTDEYLDAMMNEAPGPINFTMFLTMFGEKLNGTDPEDVIRNAFACFDEEATGTIQEDYLRELLTTMGDRFTDEEVDELYREAPIDKKGNFNYIEFTRILKHGAKDKDD
B5: SPG7 (protein, UniProt Q9UQ90 106-795, looked up)
Mitochondrial inner membrane …: LKQKNKEKDKSKGKAPEEDEEERRRRERDDQMYRERLRTLLVIAVVMSLLNALSTSGGSISWNDFVHEMLAKGEVQRVQVVPESDVVEVYLHPGAVVFGRPRLALMYRMQVANIDKFEEKLRAAEDELNIEAKDRIPVSYKRTGFFGNALYSVGMTAVGLAILWYVFRLAGMTGREGGFSAFNQLKMARFTIVDGKMGKGVSFKDVAGMHEAKLEVREFVDYLKSPERFLQLGAKVPKGALLLGPPGCGKTLLAKAVATEAQVPFLAMAGPEFVEVIGGLGAARVRSLFKEARARAPCIVYIDEIDAVGKKRSTTMSGFSNTEEEQTLNQLLVEMDGMGTTDHVIVLASTNRADILDGALMRPGRLDRHVFIDLPTLQERREIFEQHLKSLKLTQSSTFYSQRLAELTPGFSGADIANICNEAALHAAREGHTSVHTLNFEYAVERVLAGTAKKSKILSKEEQKVVAFHESGHALVGWMLEHTEAVMKVSITPRTNAALGFAQMLPRDQHLFTKEQLFERMCMALGGRASEALSFNEVTSGAQDDLRKVTRIAYSMVKQFGMAPGIGPISFPEAQEGLMGIGRRPFSQGLQQMMDHEARLLVAKAYRHTEKVLQDNLDKLQALANALLEKEVINYEDIEALIGPPPHGPKKMIAPQRWIDAQREKQDLGEEETEETQQPPLGGEEPTWPK
B6: SLC2A1 (protein, UniProt P11166 1-492, looked up)
Solute carrier family 2, …: MEPSSKKLTGRLMLAVGGAVLGSLQFGYNTGVINAPQKVIEEFYNQTWVHRYGESILPTTLTTLWSLSVAIFSVGGMIGSFSVGLFVNRFGRRNSMLMMNLLAFVSAVLMGFSKLGKSFEMLILGRFIIGVYCGLTTGFVPMYVGEVSPTALRGALGTLHQLGIVVGILIAQVFGLDSIMGNKDLWPLLLSIIFIPALLQCIVLPFCPESPRFLLINRNEENRAKSVLKKLRGTADVTHDLQEMKEESRQMMREKKVTILELFRSPAYRQPILIAVVLQLSQQLSGINAVFYYSTSIFEKAGVQQPVYATIGSGIVNTAFTVVSLFVVERAGRRTLHLIGLAGMAGCAILMTIALALLEQLPWMSYLSIVAIFGFVAFFEVGPGPIPWFIVAELFSQGPRPAAIAVAGFSNWTSNFIVGMCFQYVEQLCGPYVFIIFTVLLVLFFIFTYFKVPETKGRTFDEIASGFRQGGASQSDKTPEELFHPLGADSQV
B7: HARS (protein, UniProt P12081 2-509, looked up)
Histidine--tRNA ligase, …: AERAALEELVKLQGERVRGLKQQKASAELIEEEVAKLLKLKAQLGPDESKQKFVLKTPKGTRDYSPRQMAVREKVFDVIIRCFKRHGAEVIDTPVFELKETLMGKYGEDSKLIYDLKDQGGELLSLRYDLTVPFARYLAMNKLTNIKRYHIAKVYRRDNPAMTRGRYREFYQCDFDIAGNFDPMIPDAECLKIMCEILSSLQIGDFLVKVNDRRILDGMFAICGVSDSKFRTICSSVDKLDKVSWEEVKNEMVGEKGLAPEVADRIGDYVQQHGGVSLVEQLLQDPKLSQNKQALEGLGDLKLLFEYLTLFGIDDKISFDLSLARGLDYYTGVIYEAVLLQTPAQAGEEPLGVGSVAAGGRYDGLVGMFDPKGRKVPCVGLSIGVERIFSIVEQRLEALEEKIRTTETQVLVASAQKKLLEERLKLVSELWDAGIKAELLYKKNPKLLNQLQYCEEAGIPLVAIIGEQELKDGVIKLRSVTSREEVDVRREDLVEEIKRRTGQPLCIC
B8: IDH3G (protein, UniProt P51553 40-393, looked up)
Isocitrate dehydrogenase …: FSEQTIPPSAKYGGRHTVTMIPGDGIGPELMLHVKSVFRHACVPVDFEEVHVSSNADEEDIRNAIMAIRRNRVALKGNIETNHNLPPSHKSRNNILRTSLDLYANVIHCKSLPGVVTRHKDIDILIVRENTEGEYSSLEHESVAGVVESLKIITKAKSLRIAEYAFKLAQESGRKKVTAVHKANIMKLGDGLFLQCCREVAARYPQITFENMIVDNTTMQLVSRPQQFDVMVMPNLYGNIVNNVCAGLVGGPGLVAGANYGHVYAVFETATRNTGKSIANKNIANPTATLLASCMMLDHLKLHSYATSIRKAVLASMDNENMHTPDIGGQGTTSEAIQDVIRHIRVINGRAVEA
B9: SLC25A10 (protein, UniProt Q9UBX3 1-287, looked up)
Mitochondrial dicarboxylate …: MAAEARVSRWYFGGLASCGAACCTHPLDLLKVHLQTQQEVKLRMTGMALRVVRTDGILALYSGLSASLCRQMTYSLTRFAIYETVRDRVAKGSQGPLPFHEKVLLGSVSGLAGGFVGTPADLVNVRMQNDVKLPQGQRRNYAHALDGLYRVAREEGLRRLFSGATMASSRGALVTVGQLSCYDQAKQLVLSTGYLSDNIFTHFVASFIAGGCATFLCQPLDVLKTRLMNSKGEYQGVFHCAVETAKLGPLAFYKGLVPAGIRLIPHTVLTFVFLEQLRKNFGIKVPS
B10: PARS2 (protein, UniProt Q7L3T8 30-475, looked up)
Probable proline--tRNA …: HHCAPRRGRRLLLSRVFQPQNLREDRVLSLQDKSDDLTCKSQRLMLQVGLIYPASPGCYHLLPYTVRAMEKLVRVIDQEMQAIGGQKVNMPSLSPAELWQATNRWDLMGKELLRLRDRHGKEYCLGPTHEEAITALIASQKKLSYKQLPFLLYQVTRKFRDEPRPRFGLLRGREFYMKDMYTFDSSPEAAQQTYSLVCDAYCSLFNKLGLPFVKVQADVGTIGGTVSHEFQLPVDIGEDRLAICPRCSFSANMETLDLSQMNCPACQGPLTKTKGIEVGHTFYLGTKYSSIFNAQFTNVCGKPTLAEMGCYGLGVTRILAAAIEVLSTEDCVRWPSLLAPYQACLIPPKKGSKEQAASELIGQLYDHITEAVPQLHGEVLLDDRTHLTIGNRLKDANKFGYPFVIIAGKRALEDPAHFEVWCQNTGEVAFLTKDGVMDLLTPVQTV

The first data set concerns BAF complex subunits and histone proteins. In words: Mass spectrometry proteomics of purified HA-SS18 WT and HA-SS18-SSX1 complexes (Tables 5A-5E). Also on record: species or system human. The note with it: HA-SS18WT_NE_peptides: HA-SS18 WT complexes purified from nuclear extract (NE), HEK-293T; label = protein identified (Gene Symbol).
As for B1, the “Total (peptides)” value is given as 4 and the “Unique (peptides)” value is listed as 3.
In the same order, the values of B2 are 3 and 3.
In the same order, the values of B3 are 4 and 3.
For B4, the “Total (peptides)” value turned out to be 3 and the “Unique (peptides)” value is on record as 3.
Take B5: the “Total (peptides)” value was 3 and the “Unique (peptides)” value is reported as 3.

The same data set, now with this note: HA-SS18WT_NE_peptides: proteins co-purified with HA-SS18 WT from nuclear extract (NE), HEK-293T.
As for B6, the “Total (peptides)” value is 2 and the “Unique (peptides)” value is reported as 2.
Regarding B7, the “Total (peptides)” value is given as 2 and the “Unique (peptides)” value was 2.
On to B8, for which the “Total (peptides)” value was found to be 2 and the “Unique (peptides)” value turned out to be 2.
For B9, the “Total (peptides)” value was 2 and the “Unique (peptides)” value was 2.
B10: the “Total (peptides)” value turned out to be 2 and the “Unique (peptides)” value is given as 2.

Source of the values: US20250283871A1, “COMPOSITIONS AND METHODS FOR MODULATING THE INTERACTION BETWEEN SS18-SSX FUSION ONCOPROTEIN AND NUCLEOSOMES” (Dana-Farber Cancer Institute, Inc., priority 2020, published 2025).
